Experimental findings from paper doi:10.1101/2023.03.27.534109 are described below.

Protein sequences, listed by entry. Tags and fused reporters are not part of them.
UniProt Q13568: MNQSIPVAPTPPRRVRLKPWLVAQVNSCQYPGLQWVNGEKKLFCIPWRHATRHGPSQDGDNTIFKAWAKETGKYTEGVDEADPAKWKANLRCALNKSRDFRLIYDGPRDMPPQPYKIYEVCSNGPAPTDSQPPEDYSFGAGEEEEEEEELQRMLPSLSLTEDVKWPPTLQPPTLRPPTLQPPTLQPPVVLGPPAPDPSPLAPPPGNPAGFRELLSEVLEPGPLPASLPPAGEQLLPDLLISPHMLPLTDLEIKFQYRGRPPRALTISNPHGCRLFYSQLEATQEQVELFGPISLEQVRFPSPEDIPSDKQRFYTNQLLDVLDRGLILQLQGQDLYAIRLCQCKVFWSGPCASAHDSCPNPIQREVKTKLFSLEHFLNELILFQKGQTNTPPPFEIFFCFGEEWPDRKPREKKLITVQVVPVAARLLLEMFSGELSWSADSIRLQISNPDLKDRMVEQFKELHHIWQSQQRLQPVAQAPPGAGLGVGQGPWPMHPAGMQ

No constants are given. Whether binding was seen depends on the method and setting. Some binding calls cover weakened binding; strength is not graded here.

This test concerns the target endogenous IRF5 of THP1 cells stimulated with a TLR7/8 agonist (human (endogenous in THP1)) (UniProt Q13568). The experiment in a line: native gel or EMSA.

For the substance “endogenous IRF5 of THP1 cells stimulated with a TLR7/8 agonist (from UniProt Q13568 1-498)”, the binding result is recorded as “binds”.
